The values that follow come from publication PMC6649750.

The data set addresses T1, Bst DNA polymerase I large fragment (Geobacillus stearothermophilus) (UniProt E1C9K5).
T1 sequence (looked up): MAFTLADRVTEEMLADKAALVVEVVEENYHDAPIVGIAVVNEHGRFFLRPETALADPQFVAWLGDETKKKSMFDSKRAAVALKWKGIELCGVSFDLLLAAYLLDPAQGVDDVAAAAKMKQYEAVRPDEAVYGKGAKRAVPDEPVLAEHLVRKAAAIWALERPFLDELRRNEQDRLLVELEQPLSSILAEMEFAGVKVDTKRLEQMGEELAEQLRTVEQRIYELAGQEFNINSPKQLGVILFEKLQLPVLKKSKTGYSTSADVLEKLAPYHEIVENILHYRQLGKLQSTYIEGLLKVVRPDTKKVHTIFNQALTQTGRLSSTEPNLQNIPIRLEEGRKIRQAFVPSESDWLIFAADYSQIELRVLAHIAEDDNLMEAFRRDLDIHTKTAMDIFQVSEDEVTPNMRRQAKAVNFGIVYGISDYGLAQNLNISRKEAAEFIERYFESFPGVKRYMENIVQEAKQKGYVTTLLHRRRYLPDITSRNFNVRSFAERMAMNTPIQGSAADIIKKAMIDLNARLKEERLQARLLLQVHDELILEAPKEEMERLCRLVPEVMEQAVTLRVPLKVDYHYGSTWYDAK
Put plainly: X-ray crystallography. Particulars: post-translocated binary complex, 20 mM MgCl2 in annealing buffer, strand 1 (primer) DNA, P/T annealed in 50 mM Tris-Cl pH 7.5, 150 mM NaCl, 1 mM EDTA, 10 mM BME + 20 mM MgCl2, polymerase + P/T + TTP 30 min at 37 C before crystallization, recombinant protein, residues 3-580, protein details: tagless, synthetic backbone, letters put together from the description.

Where a protein sequence is shown, tags need not be part of it.

Regarding “GCGATCACGTT / GACGTACGTGATCGCA [DNA/TNA primer-template, primer extended by one dT]”, the binding result (1.91 A, strand 2 (template) entirely TNA (alpha-L-threofuranosyl, 3'-2' linked)) is recorded as “binds”.

Consider “GCGATCACGTT / GACGUACGUGAUCGCA [DNA/FANA primer-template, primer extended by one dT]”, for which the binding result (1.62 A, strand 2 (template) entirely FANA (2'-deoxy-2'-fluoro-arabino), U in place of T) is “binds”.
